Assay results from PMC10329633, “Molecular basis and design principles of switchable front-rear polarity and directional migration in Myxococcus xanthus” (Nature Communications, 2023).
Results are given in words; binding and its absence hold for the method and conditions named. For part of these data: Binding can be weak; no strength is given. Tags and fused reporters may be left off the sequences shown.

T1: His6-MglB (Myxococcus xanthus) (UniProt Q1DB03)
T1 sequence: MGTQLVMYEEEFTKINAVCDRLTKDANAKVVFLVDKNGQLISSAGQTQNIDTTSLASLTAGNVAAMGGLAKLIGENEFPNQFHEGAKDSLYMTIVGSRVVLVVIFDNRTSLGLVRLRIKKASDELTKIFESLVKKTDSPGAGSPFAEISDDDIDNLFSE


Experiments:
[1] = target: T1, His6-MglB (Myxococcus xanthus); experiment: pull-down; His6-MglB or His6-MglB^KRK as bait on nickel magnetic beads, pairwise; proteins 10 µM each, buffer 1, washes with 50 mM imidazole, RT; both purified
[2] = target: T1, His6-MglB (Myxococcus xanthus); experiment: pull-down; His6-MglB as bait on nickel magnetic beads, all three proteins (His6-MglB, Strep-MglC, MalE-RomR) present; 10 µM each, buffer 1, washes with 50 mM imidazole, RT; both purified
[3] = target: Strep-MglC (Myxococcus xanthus); experiment: pull-down; Strep-MglC as bait on Strep-Tactin beads; 40 µM GDP in all buffers; without or with MglA-His6 preincubated with GDP; proteins 10 µM; MglB detected by immunoblot with α-MglB; both purified
[4] = target: Strep-MglC (Myxococcus xanthus); experiment: pull-down; Strep-MglC as bait on Strep-Tactin beads; 40 µM GppNHp in all buffers; without or with MglA-His6 preincubated with GppNHp; proteins 10 µM; MglB detected by immunoblot with α-MglB; both purified
[5] = target: Strep-MglC (Myxococcus xanthus); experiment: pull-down; Strep-MglC as bait on Strep-Tactin MagStrep type3 XT beads, pairwise; proteins 10 µM each, buffer 1 (50 mM Tris-HCl pH 7.5, 150 mM NaCl, 1 mM DTT, 5 mM MgCl2, 5% glycerol), RT; MglA-His6 preloaded with GTP and 40 µM GTP in all buffers; Coomassie-stained SDS-PAGE; both purified
[6] = target: Strep-MglC (Myxococcus xanthus); experiment: condition: only with MglA-His6 loaded with GppNHp (10 µM); pull-down; Strep-MglC as bait on Strep-Tactin beads; 40 µM GppNHp in all buffers; without or with MglA-His6 preincubated with GppNHp; proteins 10 µM; MglB detected by immunoblot with α-MglB; both purified

Row | binding [1] | binding [2] | binding [3] | binding [4] | binding [5] | binding [6] | Molecule
1 | binds | binds | – | – | – | – | Strep-MglC (Myxococcus xanthus)
2 | – | – | no binding (tested: 10 µM) | no binding (tested: 10 µM) | no binding (tested: 10 µM) | – | MglA-His6 (protein, UniProt Q1DB04 1-195) MSFINYSSREINCKIVYYGPGLCGKTTNLQYIYNKTAAETKGKLISLSTETDRTLFFDFLPLSLGEIRGFKTRFHLYTVPGQVFYDASRKLILKGVDGVVFVADSQIERMEANMESLENLRINLAEQGYDLNKIPYVIQYNKRDLPNAVTVEEMRKALNHRNIPEYQAVAPTGVGVFDTLKAVAKLVLTELKKGG
3 | – | – | binds | binds | binds | no binding | His6-MglB (natural protein, Myxococcus xanthus, also called MglB-His6; MglB^WT; source: E. coli Rosetta 2(DE3), purified (Ni-NTA, Superdex 75 gel filtration); not shown: His6, N-terminal, kept) MGTQLVMYEEEFTKINAVCDRLTKDANAKVVFLVDKNGQLISSAGQTQNIDTTSLASLTAGNVAAMGGLAKLIGENEFPNQFHEGAKDSLYMTIVGSRVVLVVIFDNRTSLGLVRLRIKKASDELTKIFESLVKKTDSPGAGSPFAEISDDDIDNLFSE
